Consider one molecule from patent publication US10376540B2, “Tungsten (VI) salts used to treat infertility, for stimulating fertility and normal reproduction in a non-diabetic female mammal, and for improving the effectiveness of assisted reproduction techniques” (OXOLIFE, S.L., priority 2014, dated 2019).

This data set can be described thus: Body weight study. In kind it is in vivo, mice. The conditions noted are these: for Body weight, Average: average of 6 mice; for Body weight: individual mice, dihydrate.

“And” between values parts separate entries of the source, which are not always exact repeats. Equal entries are not always repeated.

`O.O.[Na+].[Na+].[O]=[W](=[O])([O-])[O-]` [sodium tungstate, sodium tungstate dihydrate]: the “Body weight, Average” value (Day 2) worked out at 17.33 g; the “Body weight, Average” value (Day 5) stood at 16.97 g; the “Body weight, Average” value (Day 7) stood at 16.84 g; the “Body weight, Average” value (Day 9) is recorded as 17.35 g; the “Body weight, Average” value (Day 12) came out at 17.72 g. Moreover, the Body weight reads like this: (Day 2, 2 mg/ml in drinking water) 22.9 g and 14.84 g and 18.98 g and 17.01 g and 14.18 g and 16.04 g; (Day 5) 22.61 g and 14.89 g and 18.2 g and 16.61 g and 13.79 g and 15.72 g; (Day 7) 22.42 g and 15.07 g and 17.81 g and 16.35 g and 13.74 g and 15.66 g; (Day 9) 22.85 g and 15.56 g and 17.9 g and 16.89 g and 14.5 g and 16.39 g; (Day 12) 23.15 g and 15.91 g and 18.24 g and 17.19 g and 14.92 g and 16.89 g.
